These are yes or no findings as the source states them, for the method shown. Binding seen in cells or lysates may run through a third protein. A yes stands for co-enrichment or nearness to the bait. Other partners may have been found.
Biological target: T1, Decoy receptor 2 (DcR2), human, endogenous in renal biopsy tissue (human (endogenous in renal biopsy tissue)) (UniProt Q9UBN6)
T1 sequence: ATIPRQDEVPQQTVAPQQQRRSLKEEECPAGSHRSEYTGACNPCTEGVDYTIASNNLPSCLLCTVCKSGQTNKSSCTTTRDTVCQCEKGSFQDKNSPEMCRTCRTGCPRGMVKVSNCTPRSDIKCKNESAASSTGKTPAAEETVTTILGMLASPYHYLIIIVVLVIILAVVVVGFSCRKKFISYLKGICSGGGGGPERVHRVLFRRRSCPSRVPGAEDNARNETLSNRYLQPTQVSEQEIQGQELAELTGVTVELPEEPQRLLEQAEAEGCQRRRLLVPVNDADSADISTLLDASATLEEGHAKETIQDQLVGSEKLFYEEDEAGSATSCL
Experiment: affinity purification with mass spectrometry; lysed renal tissue of 18 patients with DN and 18 healthy controls incubated overnight with 2 ug anti-DcR2 antibody at 4 °C, protein A + G agarose 3 h at 4 °C, tryptic peptides by LC-MS/MS; proteins with intensity ratio >2 (p < 0.05) taken as DcR2-interacting

By UniProt entry, the sequences of proteins in these tests, tags left out. Residues count along the entry.
UniProt P11021, residues 19-654: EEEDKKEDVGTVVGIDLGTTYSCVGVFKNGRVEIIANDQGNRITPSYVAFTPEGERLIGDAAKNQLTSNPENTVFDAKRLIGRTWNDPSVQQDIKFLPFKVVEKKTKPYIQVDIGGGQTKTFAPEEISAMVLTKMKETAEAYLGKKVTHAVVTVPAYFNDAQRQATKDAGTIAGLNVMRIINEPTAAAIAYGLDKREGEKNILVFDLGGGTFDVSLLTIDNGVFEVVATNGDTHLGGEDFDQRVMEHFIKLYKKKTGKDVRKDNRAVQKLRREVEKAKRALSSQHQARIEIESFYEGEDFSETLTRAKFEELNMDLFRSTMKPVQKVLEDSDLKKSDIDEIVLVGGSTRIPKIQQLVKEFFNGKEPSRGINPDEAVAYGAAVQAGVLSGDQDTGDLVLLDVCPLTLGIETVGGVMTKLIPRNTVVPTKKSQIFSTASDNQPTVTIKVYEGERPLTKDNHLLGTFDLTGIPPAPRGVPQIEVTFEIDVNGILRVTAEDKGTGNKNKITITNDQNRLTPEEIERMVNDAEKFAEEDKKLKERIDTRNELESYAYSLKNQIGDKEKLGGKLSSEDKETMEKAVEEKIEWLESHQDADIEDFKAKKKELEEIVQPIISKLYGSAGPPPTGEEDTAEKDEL

binding: binds
Substance: Glucose-related protein 78 kDa (GRP78), human, endogenous in renal biopsy tissue (from UniProt P11021 19-654)

Reference: paper PMC9166763
